From PubChem BioAssay AID2685 (National Center for Advancing Translational Sciences (NCATS), 2010)
The list shows a part of the results. The main result of the screen is listed elsewhere. These columns were measured beside it and carry no call. The list favours compounds with an active or inconclusive main result. Potencies come from curve fits of mixed quality, noted in brackets.

Experiment: qHTS Assay for Lipid Storage Modulators in Drosophila S3 Cells;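 on cell number change: cells counted by Cell Tracker Red CMTPX staining in the red channel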
Conditions: BODIPY lipid droplet fluorescence, 18-24 h; for cell number change: measured here: cell count max response, cells fed with added oleic acid
Summary of the method: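 Drosophila S3 cells got compounds at several concentrations plus oleic acid (400 uM solution). Laser-scanning cytometry with 488 nm excitation read lipid droplets at 500-530 nm and cells at 575-640 nm. Percent activity was relative to 20 uM Triacsin C.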

[1] = measured here: lipid fluorescence (Fed channel) AC50, cells fed with added oleic acid
[2] = measured here: cell number channel AC50, cells fed with added oleic acid

CC1CCN(C(=O)COC(=O)c2cccc(S(=O)(=O)N(C)c3ccccc3)c2)CC1
cell number change: 0.352% | AC50 [1]: 5.8 nM [rising, full curve, poor fit]

CN(C(=O)c1ccc(NC(=O)Cc2ccc(NC(=O)C3CCCN(C(=O)CCc4ccccc4)C3)cc2)cc1)C1CC1 (stereo not given)
cell number change: -43.7% | AC50 [2]: 18400 nM [falling, partial curve, poor fit] | AC50 [1]: 6510 nM [falling, single point]

CCN(CC)C(=O)C(Cc1ccccc1)N1C(=O)c2ccccc2C1=O (stereo not given)
AC50 [1]: 6510 nM [falling, single point]

Cc1cccc(OCC(=O)Nc2ccc(C(=O)Nc3ccccc3C(=O)O)cc2)c1C
cell number change: -6.03% | AC50 [1]: 2310 nM [rising, single point]

CCN(CC)S(=O)(=O)C1CCS(=O)(=O)C1 (stereo not given)
cell number change: -2.87% | AC50 [1]: 25900 nM [falling, partial curve]

CCOc1ccc2nc(NC(=O)CC3Oc4ccccc4NC3=O)sc2c1 (stereo not given)
cell number change: 11.7% | AC50 [1]: 206 nM [rising, full curve]

CC1=C(C(=O)Nc2ccccc2)C(c2sccc2C)n2nnnc2N1 (stereo not given)
AC50 [2]: 6510 nM [rising, partial curve, poor fit]

COC(=O)c1ccc(N2C(=O)CC(N3CCN(C(=O)c4ccco4)CC3)C2=O)cc1 (stereo not given)
cell number change: 9.59% | AC50 [1]: 29100 nM [falling, partial curve]

O=C(O)CSc1nnc(-c2ccc(Cl)cc2)n1-c1ccccc1
cell number change: -1.92%

C/C(=N\N=C(N)N)c1ccc(Cl)cc1
cell number change: -6.2% | AC50 [1]: 6510 nM [falling, single point]

Cc1ccccc1C(=O)N1CCC(C(=O)NCCc2ccc(S(N)(=O)=O)cc2)CC1
cell number change: 10.9%

CCOc1ccc(CC(=O)NNC(=S)Nc2ccccc2)cc1Br
cell number change: 14.4% | AC50 [2]: 103 nM [rising, full curve, poor fit] | AC50 [1]: 580 nM [rising, single point]

O=C(c1coc(=O)c(Br)c1)N1CCOCC1
cell number change: -107% | AC50 [2]: 25900 nM [falling, partial curve] | AC50 [1]: 23100 nM [falling, partial curve]

CCCCc1nc(N2CCN(C(=O)c3ccco3)CC2)c(C#N)c2c1CCCC2
cell number change: 4.72% | AC50 [1]: 6510 nM [rising, single point]

CCOC(=O)C1CCN(C/C=C/c2ccccc2OC)CC1
cell number change: -12.3% | AC50 [1]: 4.61 nM [falling, full curve, poor fit]

O=C(Cn1cncn1)NCCCc1ccccc1
cell number change: -8.61% | AC50 [2]: 116 nM [falling, full curve, poor fit] | AC50 [1]: 73.1 nM [falling, full curve, poor fit]

O=C1c2ccccc2C(=O)N1CCCc1nc(-c2ccc(Cl)cc2)no1
cell number change: 2.34%

COc1cc(OC)cc(C(=O)NCC(=O)NC(C)c2ccccc2)c1 (stereo not given)
cell number change: -2.78%

O=C(Nc1ccccc1Cl)c1cccs1
cell number change: -22.5%

Cc1cc(OC(C)C(=O)NCCCN2CCOCC2)ccc1Cl (stereo not given)
cell number change: -17.9% | AC50 [1]: 1030 nM [falling, full curve, poor fit]

O=C(CN1C(=O)CC(c2ccccc2)=Nc2ccccc21)NCc1ccccc1
cell number change: -21% | AC50 [1]: 29100 nM [falling, single point]

Cc1cccc(NC(=O)c2c(F)c(F)c(F)c(F)c2F)c1
cell number change: 11.7% | AC50 [1]: 731 nM [falling, single point]

Cn1c(-c2ccccc2)c(/C=N/NC(=O)c2ccc(O)cc2)c2ccccc21
cell number change: 25.2% | AC50 [2]: 326 nM [rising, full curve, poor fit]

COc1ccc(CCNc2nc(C)nc3c2nnn3Cc2ccccc2)cc1OC
cell number change: -22.5%

CCSc1nnc(NC(=O)[C@@H](NC(=O)c2cccc(C)c2)C(C)C)s1
cell number change: 15.2% | AC50 [1]: 7310 nM [rising, single point]

Cc1ccccc1C(=O)Nc1ccc2c(c1)OCO2
cell number change: 30.6% | AC50 [2]: 51.7 nM [rising, full curve, poor fit]

COc1c(OC)c2[nH]c(=O)cc3c4ccccc4n(c1=O)c23
cell number change: -20.8% | AC50 [1]: 259 nM [falling, full curve, poor fit]

COc1ccc(C2NC(=O)NC(C)=C2C(=O)OC2CCC(C)CC2)cc1 (stereo not given)
cell number change: -44% | AC50 [2]: 10300 nM [falling, partial curve]

O=C(NC1CCCC1)C(c1ccccc1)N(C(=O)c1ccno1)c1cccnc1 (stereo not given)
cell number change: 12.3% | AC50 [1]: 4.61 nM [rising, full curve, poor fit]

Cc1cnc(C(=O)OCC(=O)c2ccc(Br)s2)cn1
cell number change: -22.1%

Cc1c(C(=O)O)[nH]c2ccc([N+](=O)[O-])cc12
cell number change: -38.9% | AC50 [2]: 16.4 nM [falling, full curve, poor fit] | AC50 [1]: 2910 nM [falling, partial curve, poor fit]

Cc1nnc(SCC(=O)OC2CC(C)CCC2C(C)C)[nH]c1=O (stereo not given)
cell number change: 40.1% | AC50 [2]: 23100 nM [rising, partial curve, poor fit]

CCc1ccc(OCc2nnc(NC(=O)c3cccs3)s2)cc1
cell number change: -17.2% | AC50 [1]: 2910 nM [falling, partial curve]

COc1cc(/C=N/NC(N)=O)c(Br)cc1OCC(=O)Nc1ccccc1C
cell number change: 1.72% | AC50 [1]: 259 nM [falling, full curve, poor fit]

COc1cc(OC)c(NC(=O)c2ccccc2F)cc1Cl
cell number change: 35% | AC50 [2]: 291 nM [rising, full curve, poor fit] | AC50 [1]: 259 nM [rising, full curve, poor fit]

CCOc1ccccc1N1CC(C(=O)Nc2cccc(S(=O)(=O)N3CCCCC3)c2)CC1=O (stereo not given)
cell number change: -17.2% | AC50 [2]: 3260 nM [falling, single point] | AC50 [1]: 3260 nM [falling, single point]

COc1ccc2c(c1)c(C(=O)N1CCN(C)CC1)c(C)n2-c1ccccc1
cell number change: -2.51% | AC50 [1]: 29100 nM [falling, single point]

Cc1ccc(CN2CCCN(Cc3cc(C)ccc3C)S2(=O)=O)cc1
cell number change: 32.4% | AC50 [2]: 820 nM [rising, full curve, poor fit] | AC50 [1]: 14600 nM [rising, partial curve, poor fit]
